Substitutions are numbered along the chain they refer to.
How the values were obtained:
Experiment in all cases: Whole cell [3H]NMS binding inhibition/interaction assay (ACh ± PAM), FlpIn CHO cells
F77^2.56I M1 mAChR = biological target: T1, F77^2.56I M1 mAChR (Homo sapiens, UniProt P11229, F77I)
T1 construct: expressed in transfected cells
T1 sequence (P11229 1-460 F77I): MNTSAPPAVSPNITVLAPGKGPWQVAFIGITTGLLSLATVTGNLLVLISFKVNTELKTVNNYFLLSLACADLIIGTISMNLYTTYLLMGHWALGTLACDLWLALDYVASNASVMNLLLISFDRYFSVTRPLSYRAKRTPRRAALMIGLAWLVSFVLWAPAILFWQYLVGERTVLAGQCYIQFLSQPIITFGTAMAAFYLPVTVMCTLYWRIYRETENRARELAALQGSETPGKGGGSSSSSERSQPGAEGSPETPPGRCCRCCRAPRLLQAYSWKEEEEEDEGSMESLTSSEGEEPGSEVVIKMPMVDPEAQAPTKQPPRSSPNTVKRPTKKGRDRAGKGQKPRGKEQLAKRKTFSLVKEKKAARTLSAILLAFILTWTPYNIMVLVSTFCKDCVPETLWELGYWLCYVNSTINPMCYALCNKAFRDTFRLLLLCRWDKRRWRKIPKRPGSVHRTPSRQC
Procedure: (§1) Saturation binding assays were performed to estimate the expression levels and equilibrium dissociation constant of the radioligand (KD). FlpIn CHO cells stably expressing the WT or mutant c-myc hM1 mAChRs were plated at the density of 25,000 per well of 96-well white clear bottom Isoplates (PerkinElmer Life Sciences, Boston, MA), and grown overnight at 37 °C. […] Atropine at the final concentration of 100 µM was used to determine non-specific binding. The assays were terminated by rapid removal of the radioligand, and two washes with 100 µl/well ice-cold 0.9% NaCl buffer.
(§2) All data were analysed using GraphPad Prism 7 (San Diego, CA). […] Binding interaction studies between orthosteric agonists and allosteric modulators were fitted to the following allosteric ternary complex model (Eq. (1)):(1) Y=BmaxD/D+KDKB/α^′B+KB1+I/KI+B/KB+αIB/KIKB where Bmax is the total number of receptors, [D], [B] and [I] denote the concentrations of radioligand, allosteric ligand, and orthosteric ligand, respectively, and KD, KB and KI represent their respective equilibrium dissociation constants. α′ and α are the cooperativity factors between the allosteric ligand and radioligand or orthosteric ligand, respectively.

W400^7.35A M1 mAChR = biological target: T2, W400^7.35A M1 mAChR (Homo sapiens, UniProt P11229, W400A); conditions: affinity and cooperativity could not be estimated
T2 construct: expressed in transfected cells
T2 sequence (P11229 1-460 W400A): T1 sequence (P11229 1-460 F77I) with I77F, W400A
Procedure: as §1, §2

WT M1 mAChR = biological target: T3, WT M1 mAChR (Homo sapiens, UniProt P11229)
T3 construct: expressed in transfected cells
T3 sequence (P11229 1-460): T1 sequence (P11229 1-460 F77I) with I77F
Procedure: as §1, §2

Y179^ECL2A M1 mAChR = biological target: T4, Y179^ECL2A M1 mAChR (Homo sapiens, UniProt P11229, Y179A); conditions: affinity and cooperativity could not be estimated
T4 construct: expressed in transfected cells
T4 sequence (P11229 1-460 Y179A): T1 sequence (P11229 1-460 F77I) with I77F, Y179A
Procedure: as §1, §2

Y82^2.61A M1 mAChR = biological target: T5, Y82^2.61A M1 mAChR (Homo sapiens, UniProt P11229, Y82A)
T5 construct: expressed in transfected cells
T5 sequence (P11229 1-460 Y82A): T1 sequence (P11229 1-460 F77I) with I77F, Y82A
Procedure: as §1, §2

[1] = constrained to −2 where preferred model by F-test

COc1ccc(Cn2cc(C(=O)O)c(=O)c3ccccc32)cc1 [BQCA, 1-(4-methoxybenzyl)-4-oxo-1,4-dihydroquinoline-3-carboxylic acid]
Logα ACh (logarithm of binding cooperativity between ACh and modulator) (F77^2.56I M1 mAChR): 1.31 ± 0.12
α ACh (binding cooperativity with ACh, antilog in brackets) (F77^2.56I M1 mAChR): 13.5
α NMS (binding cooperativity with [3H]NMS, antilog in brackets) (F77^2.56I M1 mAChR): 0.08
Logα NMS (logarithm of binding cooperativity between [3H]NMS and modulator) (F77^2.56I M1 mAChR; [1]): −0.90 ± 0.07
Modulatory effect on ACh inhibition of [3H]NMS binding (W400^7.35A M1 mAChR): completely abolished
Logα ACh (logarithm of binding cooperativity between ACh and modulator) (WT M1 mAChR): 1.32 ± 0.11
Logα NMS (logarithm of binding cooperativity between [3H]NMS and modulator) (WT M1 mAChR; [1]): −1.07 ± 0.10
Modulatory effect on ACh inhibition of [3H]NMS binding (Y179^ECL2A M1 mAChR): completely abolished
Logα ACh (logarithm of binding cooperativity between ACh and modulator) (Y82^2.61A M1 mAChR): 1.58 ± 0.11
Logα NMS (logarithm of binding cooperativity between [3H]NMS and modulator) (Y82^2.61A M1 mAChR): −0.84 ± 0.06
α ACh (binding cooperativity with ACh, antilog in brackets) (Y82^2.61A M1 mAChR): 30.2

— PMC6066355, “Probing the binding site of novel selective positive allosteric modulators at the M1 muscarinic acetylcholine receptor” (Biochemical Pharmacology, 2018)
